This is an account of results in the supplement of paper PMC10338343.

± gives the standard deviation. The list shows a part of the results, in another mix than the full data. Many entries were measured with a wide error.

This experiment concerns EfPiwi piRISC loaded with piRNA #1 (26 nt). In words: pre-steady-state target cleavage rate (min^-1); guide: piRNA #1 5'p-UGAGGUAGUAGGUUGUAUAGUAUCCA; MIWI and MILI are mouse PIWI proteins and EfPiwi is from a freshwater sponge; tags in brackets are library labels; higher = faster piRNA-guided slicing of the target. The note with it: auxiliary factor: 500 nM Ephydatia muelleri Gtsf1. An outline of the steps: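 The pre-steady-state cleavage rate was derived from a burst-and-steady-state fit of Cleave-'n-Seq data. For these assays, 1 nM active affinity-purified piRISC loaded with a single synthetic guide was mixed with […] a transcribed, DNA-blocked target RNA library in HEPES–potassium acetate buffer at 33 °C, with or without 500 nM GTSF1 partner protein, for 0–8 or 0–960 min. Sequencing counts of uncleaved targets were normalised to depth and to weakly complementary targets, and k3 was capped at 0.0001 min^-1 after three trials were pooled.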
Turning to GGAGUGGAUACUAUACAACCUACUACCUAA, the “pre-steady-state target cleavage rate” value turned out to be 0.151 ± 0.054.
In the case of GGAGACGUUUCUAUACAACCUACUACCUCA it was 0.0117 ± 0.0062; in that of GGAGACCUAAGUAUACAACCUAGUACCUCA, 0.00297 ± 0.003.
In the case of GGAGACCUUAGUAUACAACCAACUACCUCA it was 0.000442 ± 0.0055.
GGAGACCAUAUUAUACAACCUACUACCUCA: the “pre-steady-state target cleavage rate” value is 0.116 ± 0.036.
As to GGAGUGGAUACUAGACAACCUACUACCUCA, the “pre-steady-state target cleavage rate” value came out at 0.226 ± 0.081.
For the sequence GGAGACCUUACUAUACAAGCUAGUACCUCA, the “pre-steady-state target cleavage rate” value came out at 0.00242 ± 0.0031.
As to GGAGACCUAACUAUACUACCUACUAGCUCA, the “pre-steady-state target cleavage rate” value was determined as 0.0011 ± 0.007.
In the case of GGAGAGGAUACUAUACAACCUACUAGCACA it was 0.00322 ± 0.0016; in that of GGAGACCUAUCUAUACUACCUACAACCUCA, 0.000222 ± 0.011; in that of GGAGACCAUACUAUACAUCCUUCUACCUCA, 0.00223 ± 0.003.
In the case of GGAGACGAUACUAAACAACGUACUACCUCA it was 0.00192 ± 0.0019; in that of GGAGACCUAUGAUAUCAACCUAGUAGCUCA, 0.000563 ± 0.011.
In the case of GGAGACGAUACUCAUACAACCUACUACCUCA it was 0.0151 ± 0.0063; in that of GGAGAGGAUACUAUACAACCUACAUGCUCA, 0.00124 ± 0.0019; in that of GGAGACCUAUCUAUACAACCUACUACCCCA, 0.00444 ± 0.0032.
For the sequence GGAGACGAUACUUUAGAACCUACUACCUCA, the “pre-steady-state target cleavage rate” value was determined as 0.00161 ± 0.0029.
As to GGAGACCUUACUAUACAACCUACUAUCCUCA, the “pre-steady-state target cleavage rate” value amounted to 0.00296 ± 0.0038.
In the case of GGAGACCAUACAAUACAACCUACUUCCUCA it was 0.00307 ± 0.0036; in that of GGAGACCUUACUAUACUACCUACUACCUGA, 0.00187 ± 0.005; in that of GGAGACCUAUGUAUACAAGCUACUACCUGA, 0.000394 ± 0.0074.
As for GGAGACCUAACAAUACAAGCUACUACCUCA, the “pre-steady-state target cleavage rate” value was 0.0028 ± 0.0046.
The figure for “GGAGACCUAUCUAUACAUGGAUGAUGGAGA [g14:g20:cont:t1A]” is 0.000107 ± 0.02.
The figure for GGAGACCUUACUAUACAACCUACAAGCUCA is 0.000919 ± 0.0087; for GGAGACCUAUGUAUACAUGCUACUACCUCA it is 0.00156 ± 0.0076; for GGAGUGGGAUACUAUACAACCUACUACCUCA it is 0.143 ± 0.046.
In the case of GGAGACCAUACUAAACAACCUACUACCACA it was 0.000755 ± 0.013; in that of GGAGACCUAACUAUACAUCCUACUUCCUCA, 0.00318 ± 0.004; in that of GGAGACCUUACAAUACAACCUACUACGUCA, 0.00112 ± 0.0048.
On to GGAGACCUAACUAUACAAGCUUCUACCUCA, for which the “pre-steady-state target cleavage rate” value amounted to 0.00252 ± 0.0042.
In the case of GGAGUGGAUACUAUUCAACCUACUUCCUCA, the “pre-steady-state target cleavage rate” value was 0.00229 ± 0.0023.
As to GGAGUGGAUACUAUACAACCUACAACCUCA, the “pre-steady-state target cleavage rate” value was 0.00468 ± 0.0018.
With GGAGACCAUACUAUACAAACUACUACCUCA, the “pre-steady-state target cleavage rate” value came to 0.00853 ± 0.0037.
In the case of GGAGACCAUUCUAUAGAACCUACUACCUCA it was 0.0023 ± 0.0042; in that of GGAGAGGAUACUAUUCAACGUACUACCUCA, 0.00415 ± 0.0012; in that of GGAGAGGUUACUAUACAACCUACAACCUCA, 0.00313 ± 0.0018.
In the case of GGAGACCUAUGAUAUGUUGCUACUGCCUCA it was 0.000776 ± 0.0066; in that of GGAGACCUUACUUUACAAGCUACUACCUCA, 0.00243 ± 0.0047; in that of GGAGACCUAACUAUACUACCUACUACGUCA, 0.00204 ± 0.0056.
As to GGAGUGGAAACUAUACAACCUACUACCACA, the “pre-steady-state target cleavage rate” value worked out at 0.00336 ± 0.0029.
